Laboratory results: the supplement of paper PMC10849652
Some of the results follow.

Protein sequences, listed by entry. Tags and fused reporters are not part of them. Lines headed by an entry give the natural chain unless they say otherwise; changes in a name come on top.
UniProt Q13619, whole entry, looked up: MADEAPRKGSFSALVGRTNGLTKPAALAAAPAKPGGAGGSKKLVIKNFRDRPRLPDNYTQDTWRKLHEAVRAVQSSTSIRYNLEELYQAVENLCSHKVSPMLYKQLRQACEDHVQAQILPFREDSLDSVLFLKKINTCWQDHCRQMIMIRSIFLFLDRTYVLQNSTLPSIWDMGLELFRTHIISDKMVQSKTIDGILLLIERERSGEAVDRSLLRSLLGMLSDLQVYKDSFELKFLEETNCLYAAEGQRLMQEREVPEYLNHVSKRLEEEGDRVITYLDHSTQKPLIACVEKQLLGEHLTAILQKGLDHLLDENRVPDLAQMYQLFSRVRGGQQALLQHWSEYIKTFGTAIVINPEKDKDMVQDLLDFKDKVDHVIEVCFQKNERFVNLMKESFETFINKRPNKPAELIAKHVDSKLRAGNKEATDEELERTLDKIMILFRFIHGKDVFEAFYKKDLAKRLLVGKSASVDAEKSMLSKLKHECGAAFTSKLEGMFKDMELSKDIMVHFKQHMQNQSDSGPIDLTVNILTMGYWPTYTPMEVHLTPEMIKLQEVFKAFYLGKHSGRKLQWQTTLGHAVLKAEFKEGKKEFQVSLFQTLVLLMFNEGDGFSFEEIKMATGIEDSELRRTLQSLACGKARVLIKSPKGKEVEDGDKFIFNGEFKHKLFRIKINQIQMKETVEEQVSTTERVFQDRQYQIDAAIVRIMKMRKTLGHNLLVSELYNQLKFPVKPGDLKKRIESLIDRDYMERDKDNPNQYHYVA
UniProt Q9NRF8: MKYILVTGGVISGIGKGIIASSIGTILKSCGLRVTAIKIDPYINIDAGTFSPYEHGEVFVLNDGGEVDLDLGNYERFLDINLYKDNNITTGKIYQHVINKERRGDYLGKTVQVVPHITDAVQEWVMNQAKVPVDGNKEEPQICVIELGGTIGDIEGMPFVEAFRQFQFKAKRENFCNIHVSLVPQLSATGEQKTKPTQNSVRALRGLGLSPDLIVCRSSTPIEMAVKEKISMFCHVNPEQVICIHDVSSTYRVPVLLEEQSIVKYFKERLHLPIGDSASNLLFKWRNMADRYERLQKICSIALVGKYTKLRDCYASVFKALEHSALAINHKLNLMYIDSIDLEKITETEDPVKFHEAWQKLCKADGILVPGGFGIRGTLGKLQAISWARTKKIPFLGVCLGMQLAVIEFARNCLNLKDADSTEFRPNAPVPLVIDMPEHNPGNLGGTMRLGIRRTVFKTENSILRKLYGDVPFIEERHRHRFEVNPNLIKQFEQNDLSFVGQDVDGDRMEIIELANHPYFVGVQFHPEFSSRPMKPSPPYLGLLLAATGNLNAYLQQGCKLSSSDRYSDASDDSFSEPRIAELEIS
UniProt Q8TEB1, whole entry, looked up: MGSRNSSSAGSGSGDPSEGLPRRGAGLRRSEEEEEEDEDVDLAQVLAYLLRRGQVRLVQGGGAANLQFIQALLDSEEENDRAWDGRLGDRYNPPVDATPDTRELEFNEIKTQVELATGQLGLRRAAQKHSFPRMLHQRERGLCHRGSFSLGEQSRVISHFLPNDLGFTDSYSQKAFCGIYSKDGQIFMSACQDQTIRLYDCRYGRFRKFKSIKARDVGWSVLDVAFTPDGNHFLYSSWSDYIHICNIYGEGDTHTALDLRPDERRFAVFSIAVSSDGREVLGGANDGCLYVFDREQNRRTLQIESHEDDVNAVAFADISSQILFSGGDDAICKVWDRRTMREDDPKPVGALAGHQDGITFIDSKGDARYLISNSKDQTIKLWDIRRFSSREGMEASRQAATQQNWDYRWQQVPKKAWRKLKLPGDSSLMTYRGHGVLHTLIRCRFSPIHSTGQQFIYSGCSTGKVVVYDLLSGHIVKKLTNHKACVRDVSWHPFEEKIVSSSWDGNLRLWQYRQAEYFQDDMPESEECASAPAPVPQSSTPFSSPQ
UniProt P99999: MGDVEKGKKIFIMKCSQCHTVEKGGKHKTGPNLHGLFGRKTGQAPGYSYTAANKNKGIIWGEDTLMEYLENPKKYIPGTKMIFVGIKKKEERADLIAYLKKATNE
UniProt Q5JQC4: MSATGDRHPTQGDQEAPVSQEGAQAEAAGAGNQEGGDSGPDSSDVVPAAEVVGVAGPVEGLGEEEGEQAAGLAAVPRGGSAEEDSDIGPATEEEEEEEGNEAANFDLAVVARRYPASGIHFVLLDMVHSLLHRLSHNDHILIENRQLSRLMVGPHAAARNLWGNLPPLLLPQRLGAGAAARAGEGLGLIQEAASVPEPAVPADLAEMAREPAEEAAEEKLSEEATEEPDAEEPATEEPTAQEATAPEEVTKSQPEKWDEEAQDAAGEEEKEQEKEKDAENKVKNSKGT
UniProt Q7L1T6: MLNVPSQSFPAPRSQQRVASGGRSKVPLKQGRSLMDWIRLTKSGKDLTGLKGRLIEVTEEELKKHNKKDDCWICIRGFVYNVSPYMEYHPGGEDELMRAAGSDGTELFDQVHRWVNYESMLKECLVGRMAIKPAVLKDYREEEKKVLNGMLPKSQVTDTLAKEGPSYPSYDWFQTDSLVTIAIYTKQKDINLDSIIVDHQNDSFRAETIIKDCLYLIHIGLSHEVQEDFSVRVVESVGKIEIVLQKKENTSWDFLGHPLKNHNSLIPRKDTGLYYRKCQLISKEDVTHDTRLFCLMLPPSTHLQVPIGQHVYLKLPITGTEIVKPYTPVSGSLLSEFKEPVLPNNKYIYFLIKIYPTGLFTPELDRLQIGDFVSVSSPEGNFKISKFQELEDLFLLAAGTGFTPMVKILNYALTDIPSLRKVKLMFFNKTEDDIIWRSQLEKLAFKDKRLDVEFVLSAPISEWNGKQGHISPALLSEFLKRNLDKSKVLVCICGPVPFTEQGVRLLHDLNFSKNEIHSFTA
UniProt Q05048: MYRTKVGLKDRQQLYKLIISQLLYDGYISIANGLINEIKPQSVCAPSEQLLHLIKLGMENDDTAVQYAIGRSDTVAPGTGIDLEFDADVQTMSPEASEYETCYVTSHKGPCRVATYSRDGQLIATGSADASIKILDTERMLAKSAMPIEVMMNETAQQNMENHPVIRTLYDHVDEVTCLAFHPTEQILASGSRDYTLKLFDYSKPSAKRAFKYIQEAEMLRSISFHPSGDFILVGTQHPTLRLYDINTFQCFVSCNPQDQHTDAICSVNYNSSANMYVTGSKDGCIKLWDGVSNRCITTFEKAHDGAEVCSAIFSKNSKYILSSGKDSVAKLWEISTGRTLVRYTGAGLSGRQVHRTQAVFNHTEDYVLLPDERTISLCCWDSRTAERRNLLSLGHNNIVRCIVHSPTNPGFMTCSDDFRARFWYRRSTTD
UniProt P35221: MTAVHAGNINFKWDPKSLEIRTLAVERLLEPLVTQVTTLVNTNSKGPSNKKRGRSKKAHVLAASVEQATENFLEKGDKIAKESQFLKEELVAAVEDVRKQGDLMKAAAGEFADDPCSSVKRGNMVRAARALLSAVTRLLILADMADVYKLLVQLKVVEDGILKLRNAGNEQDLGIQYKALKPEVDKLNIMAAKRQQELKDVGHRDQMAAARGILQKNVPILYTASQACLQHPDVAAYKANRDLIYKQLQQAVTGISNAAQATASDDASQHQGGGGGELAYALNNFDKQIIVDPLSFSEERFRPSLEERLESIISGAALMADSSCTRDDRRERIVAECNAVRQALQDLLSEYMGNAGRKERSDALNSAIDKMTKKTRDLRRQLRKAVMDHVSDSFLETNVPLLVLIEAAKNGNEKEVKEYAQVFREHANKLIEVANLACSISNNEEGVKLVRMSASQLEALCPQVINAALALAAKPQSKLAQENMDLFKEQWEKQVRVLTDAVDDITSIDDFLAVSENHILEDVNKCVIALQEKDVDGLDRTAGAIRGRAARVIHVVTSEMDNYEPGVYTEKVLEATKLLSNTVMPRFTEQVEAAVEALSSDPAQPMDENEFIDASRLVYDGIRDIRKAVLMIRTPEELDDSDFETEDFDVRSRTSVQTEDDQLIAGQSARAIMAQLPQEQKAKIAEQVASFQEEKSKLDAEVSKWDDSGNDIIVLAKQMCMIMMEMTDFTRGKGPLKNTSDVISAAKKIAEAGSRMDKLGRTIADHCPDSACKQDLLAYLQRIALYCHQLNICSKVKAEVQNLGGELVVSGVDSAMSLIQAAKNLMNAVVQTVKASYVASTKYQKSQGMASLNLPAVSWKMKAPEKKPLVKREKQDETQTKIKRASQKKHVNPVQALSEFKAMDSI
UniProt Q9UHQ9: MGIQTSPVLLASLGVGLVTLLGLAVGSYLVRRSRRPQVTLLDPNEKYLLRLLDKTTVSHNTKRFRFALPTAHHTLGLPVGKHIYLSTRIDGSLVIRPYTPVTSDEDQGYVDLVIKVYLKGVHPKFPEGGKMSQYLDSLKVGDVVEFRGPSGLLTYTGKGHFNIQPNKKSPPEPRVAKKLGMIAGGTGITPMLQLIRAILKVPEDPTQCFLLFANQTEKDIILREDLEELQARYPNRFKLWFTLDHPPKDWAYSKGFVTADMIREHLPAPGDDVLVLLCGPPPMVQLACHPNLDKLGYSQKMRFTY
UniProt P49711: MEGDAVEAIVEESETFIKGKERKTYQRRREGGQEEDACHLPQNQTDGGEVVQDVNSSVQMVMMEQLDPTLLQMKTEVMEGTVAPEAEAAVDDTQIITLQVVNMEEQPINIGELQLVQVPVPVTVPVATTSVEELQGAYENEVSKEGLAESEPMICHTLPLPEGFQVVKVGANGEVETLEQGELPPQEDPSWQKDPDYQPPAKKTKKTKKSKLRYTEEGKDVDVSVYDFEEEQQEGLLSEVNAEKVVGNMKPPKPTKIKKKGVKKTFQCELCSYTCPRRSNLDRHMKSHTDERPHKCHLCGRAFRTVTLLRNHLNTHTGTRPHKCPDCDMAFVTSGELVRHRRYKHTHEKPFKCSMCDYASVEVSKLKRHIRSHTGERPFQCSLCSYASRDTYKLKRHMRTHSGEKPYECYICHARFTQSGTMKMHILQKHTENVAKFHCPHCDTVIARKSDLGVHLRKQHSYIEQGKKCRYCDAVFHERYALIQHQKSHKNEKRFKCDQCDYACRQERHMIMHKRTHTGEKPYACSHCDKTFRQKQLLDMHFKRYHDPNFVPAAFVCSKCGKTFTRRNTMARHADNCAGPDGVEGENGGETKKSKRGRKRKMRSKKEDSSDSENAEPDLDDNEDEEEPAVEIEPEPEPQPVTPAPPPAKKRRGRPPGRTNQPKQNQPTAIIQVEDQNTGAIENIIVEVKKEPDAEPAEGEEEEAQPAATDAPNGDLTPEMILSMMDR
UniProt Q9H1C7: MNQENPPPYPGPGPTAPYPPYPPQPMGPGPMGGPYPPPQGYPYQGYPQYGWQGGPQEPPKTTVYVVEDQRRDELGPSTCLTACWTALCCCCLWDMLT
UniProt P61803: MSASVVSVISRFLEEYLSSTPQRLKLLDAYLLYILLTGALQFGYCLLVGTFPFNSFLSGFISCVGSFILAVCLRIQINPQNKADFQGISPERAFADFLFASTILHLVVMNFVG
UniProt P0DMU9: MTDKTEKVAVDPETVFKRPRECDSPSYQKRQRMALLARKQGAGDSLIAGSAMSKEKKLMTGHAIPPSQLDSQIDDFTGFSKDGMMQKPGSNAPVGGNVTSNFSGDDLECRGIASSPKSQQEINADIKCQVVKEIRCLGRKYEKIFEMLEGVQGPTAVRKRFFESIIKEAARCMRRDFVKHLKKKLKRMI
UniProt P01034: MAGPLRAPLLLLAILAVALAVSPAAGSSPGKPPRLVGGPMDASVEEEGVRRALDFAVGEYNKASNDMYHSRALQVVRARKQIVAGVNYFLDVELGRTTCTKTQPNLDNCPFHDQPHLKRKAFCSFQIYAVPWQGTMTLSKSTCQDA

Key:
Assay in all cases: log2 fold change, soluble protein after heating vs DMSO (PISA); higher = thermal stabilisation; K562 cells, 10 uM, 30 min; active = over 0.2 and 3.5 SD of the protein, either way, in both replicates (recomputed)
saracatinib = compound: CN1CCN(CCOc2cc(OC3CCOCC3)c3c(Nc4c(Cl)ccc5c4OCO5)ncnc3c2)CC1 [saracatinib]
Procedure, shortened: (§1)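 Soluble protein was quantified by TMTpro 16plex LC-MS/MS after channel sums were equalised. It was obtained as the supernatant after 21,000xg for 90 min from pooled aliquots of K562 cells (2×10^6 cells/mL, 10 μM compound, 30 min) heated for 3 min across 48°C-58°C and extracted in PBS with 0.5% NP-40 at 4°C. Thermal stability values are relative to control samples and come from duplicates. They are given as log2 fold changes.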

sotrastaurin = compound: CN1CCN(c2nc(C3=C(c4c[nH]c5ccccc45)C(=O)NC3=O)c3ccccc3n2)CC1 [sotrastaurin]
Procedure, shortened: as §1

alvocidib = compound: CN1CC[C@H](c2c(O)cc(O)c3c(=O)cc(-c4ccccc4Cl)oc23)[C@H](O)C1 [alvocidib]
Procedure, shortened: as §1

Tubastatin A = compound: CN1CCc2c(c3ccccc3n2Cc2ccc(C(=O)NO)cc2)C1 [Tubastatin A]
Procedure, shortened: as §1

[1] = compound: CNC(=O)C1=CC=CC=C1NC2=NC(=NC=C2Cl)NC3=C(C=C(C=C3)N4CCOCC4)OC
Procedure, shortened: as §1

defactinib = compound: CNC(=O)c1ccc(Nc2ncc(C(F)(F)F)c(NCc3nccnc3N(C)S(C)(=O)=O)n2)cc1 [defactinib]
Procedure, shortened: as §1

rucaparib = compound: CNCc1ccc(-c2[nH]c3cc(F)cc4c3c2CCNC4=O)cc1 [rucaparib]
Procedure, shortened: as §1

[2] = compound: CNc1nc(-c2ccc3c(N)n[nH]c3c2)cc(N2C[C@@H](C(=O)NC3CCCCC3)CC[C@H]2C)n1
Procedure, shortened: as §1

encorafenib = compound: COC(=O)N[C@@H](C)CNc1nccc(-c2cn(C(C)C)nc2-c2cc(Cl)cc(NS(C)(=O)=O)c2F)n1 [encorafenib]
Procedure, shortened: as §1

[3] = compound: COC(=O)[C@H](CCSC)NC(=O)C1=C(C=C(C=C1)NC[C@H](CS)N)C2=CC=CC=C2
Procedure, shortened: as §1

[4] = compound: COC1=CC=C(C=C1)CN2C=CC3=C2C=C(C=C3)C(=O)NO
Procedure, shortened: as §1

filanesib = compound: CON(C)C(=O)N1N=C(c2cc(F)ccc2F)S[C@@]1(CCCN)c1ccccc1 [filanesib]
Procedure, shortened: as §1

zotarolimus = compound: CO[C@H]1C[C@@H]2CC[C@@H](C)[C@@](O)(O2)C(=O)C(=O)N2CCCC[C@H]2C(=O)O[C@H]([C@H](C)C[C@@H]2CC[C@H](n3cnnn3)[C@H](OC)C2)CC(=O)[C@H](C)/C=C(\C)[C@@H](O)[C@@H](OC)C(=O)[C@H](C)C[C@H](C)/C=C/C=C/C=C/1C [zotarolimus]
Procedure, shortened: as §1

idasanutlin = compound: COc1cc(C(=O)O)ccc1NC(=O)[C@@H]1N[C@@H](CC(C)(C)C)[C@](C#N)(c2ccc(Cl)cc2F)[C@H]1c1cccc(Cl)c1F [idasanutlin]
Procedure, shortened: as §1

alisertib = compound: COc1cc(Nc2ncc3c(n2)-c2ccc(Cl)cc2C(c2c(F)cccc2OC)=NC3)ccc1C(=O)O [alisertib]
Procedure, shortened: as §1

[5] = compound: COc1cc2nc(-c3cc(F)ccc3O)nc(N[C@@H]3CNC[C@H]3C(C)(C)O)c2cc1OC
Procedure, shortened: as §1

gefitinib = compound: COc1cc2ncnc(Nc3ccc(F)c(Cl)c3)c2cc1OCCCN1CCOCC1 [gefitinib]
Procedure, shortened: as §1

[6] = compound: COc1cccc2cc(-c3nc([C@H]4CC[C@H](C(=O)O)CC4)n4ncnc(N)c34)[nH]c12
Procedure, shortened: as §1

lapatinib = compound: CS(=O)(=O)CCNCc1ccc(-c2ccc3ncnc(Nc4ccc(OCc5cccc(F)c5)c(Cl)c4)c3c2)o1 [lapatinib]
Procedure, shortened: as §1

pictilisib = compound: CS(=O)(=O)N1CCN(Cc2cc3nc(-c4cccc5[nH]ncc45)nc(N4CCOCC4)c3s2)CC1 [pictilisib]
Procedure, shortened: as §1

Measured: log2 fold change

DAP3 (UniProt P51398)
inactive: saracatinib -0.034 | sotrastaurin -0.103 | alvocidib 0 | Tubastatin A 0.021 | [1] -0.015 | defactinib 0.04 | rucaparib 0.094 | [2] 0.108 | encorafenib 0.018 | [3] -0.034 | [4] 0 | filanesib 0.049 | zotarolimus 0.076 | idasanutlin -0.141 | alisertib -0.112 | [5] -0.105 | gefitinib -0.002 | [6] 0 | lapatinib 0.084 | pictilisib -0.138

CUL4A (UniProt Q13619)
inactive: saracatinib -0.011 | sotrastaurin -0.008 | alvocidib -0.063 | Tubastatin A -0.013 | [1] 0.004 | defactinib -0.08 | rucaparib -0.021 | [2] -0.01 | encorafenib 0.044 | [3] 0.007 | [4] 0.088 | filanesib -0.028 | zotarolimus 0.014 | idasanutlin -0.054 | alisertib -0.04 | [5] 0.029 | gefitinib -0.016 | [6] 0.032 | lapatinib -0.023 | pictilisib 0.029

CTPS2 (UniProt Q9NRF8)
inactive: saracatinib 0.053 | sotrastaurin 0.093 | alvocidib -0.014 | Tubastatin A -0.028 | [1] -0.022 | defactinib -0.003 | rucaparib -0.059 | [2] -0.026 | encorafenib -0.008 | [3] 0.01 | [4] 0.027 | filanesib 0 | zotarolimus 0.015 | idasanutlin -0.016 | alisertib -0.019 | [5] 0.001 | gefitinib 0.003 | [6] 0.071 | lapatinib 0.024 | pictilisib -0.006

DCAF11 (UniProt Q8TEB1)
inactive: saracatinib 0.042 | sotrastaurin 0.033 | alvocidib 0.005 | Tubastatin A 0.055 | [1] -0.037 | defactinib -0.017 | rucaparib 0.023 | [2] -0.032 | encorafenib 0 | [3] -0.044 | [4] 0.015 | filanesib -0.108 | zotarolimus -0.01 | idasanutlin -0.007 | alisertib -0.054 | [5] 0.032 | gefitinib -0.009 | [6] 0.049 | lapatinib 0.016 | pictilisib 0.052

Fetched one by one from the entries so far, two records:
CUL4A (UniProt Q13619)
inactive: saracatinib -0.011 | sotrastaurin -0.008 | alvocidib -0.063 | Tubastatin A -0.013 | [1] 0.004 | defactinib -0.08 | rucaparib -0.021 | [2] -0.01 | encorafenib 0.044 | [3] 0.007 | [4] 0.088 | filanesib -0.028 | zotarolimus 0.014 | idasanutlin -0.054 | alisertib -0.04 | [5] 0.029 | gefitinib -0.016 | [6] 0.032 | lapatinib -0.023 | pictilisib 0.029

DCAF11 (UniProt Q8TEB1)
inactive: saracatinib 0.042 | sotrastaurin 0.033 | alvocidib 0.005 | Tubastatin A 0.055 | [1] -0.037 | defactinib -0.017 | rucaparib 0.023 | [2] -0.032 | encorafenib 0 | [3] -0.044 | [4] 0.015 | filanesib -0.108 | zotarolimus -0.01 | idasanutlin -0.007 | alisertib -0.054 | [5] 0.032 | gefitinib -0.009 | [6] 0.049 | lapatinib 0.016 | pictilisib 0.052

(listing goes on)

CYCS (UniProt P99999)
inactive: saracatinib 0.016 | sotrastaurin 0.049 | alvocidib 0.002 | Tubastatin A -0.053 | [1] -0.021 | defactinib -0.019 | rucaparib -0.026 | [2] -0.029 | encorafenib -0.031 | [3] 0.019 | [4] -0.01 | filanesib -0.045 | zotarolimus -0.011 | idasanutlin 0.009 | alisertib -0.051 | [5] 0.011 | gefitinib 0.092 | [6] 0.065 | lapatinib -0.046 | pictilisib 0.024

CT47A1 (UniProt Q5JQC4)
inactive: saracatinib -0.001 | sotrastaurin -0.017 | alvocidib 0.039 | Tubastatin A -0.037 | [1] -0.037 | defactinib 0.007 | rucaparib 0.036 | [2] -0.041 | encorafenib 0.001 | [3] 0.023 | [4] 0.012 | filanesib -0.022 | zotarolimus 0.122 | idasanutlin -0.005 | alisertib -0.148 | [5] -0.042 | gefitinib 0.033 | [6] 0.012 | lapatinib -0.017 | pictilisib -0.08

CYB5R4 (UniProt Q7L1T6)
inactive: saracatinib -0.001 | sotrastaurin 0.041 | alvocidib -0.001 | Tubastatin A 0.032 | [1] 0.008 | defactinib -0.006 | rucaparib 0.034 | [2] 0.038 | encorafenib -0.02 | [3] -0.024 | [4] -0.017 | filanesib -0.044 | zotarolimus 0.015 | idasanutlin -0.062 | alisertib 0.029 | [5] 0.052 | gefitinib 0.013 | [6] 0.06 | lapatinib 0.02 | pictilisib 0.026

CSTF1 (UniProt Q05048)
inactive: saracatinib -0.008 | sotrastaurin 0.041 | alvocidib 0.016 | Tubastatin A -0.031 | [1] 0.012 | defactinib 0.133 | rucaparib 0.028 | [2] -0.019 | encorafenib -0.009 | [3] 0.019 | [4] 0.118 | filanesib 0.003 | zotarolimus -0.005 | idasanutlin -0.058 | alisertib -0.027 | [5] 0.054 | gefitinib -0.027 | [6] -0.02 | lapatinib 0.026 | pictilisib 0.028

CTNNA1 isoform 2 (UniProt P35221)
inactive: saracatinib 0.042 | sotrastaurin 0.012 | alvocidib -0.02 | Tubastatin A 0.05 | [1] -0.003 | defactinib -0.038 | rucaparib -0.076 | [2] -0.012 | encorafenib -0.002 | [3] 0.015 | [4] 0.021 | filanesib -0.011 | zotarolimus -0.016 | idasanutlin -0.057 | alisertib 0.062 | [5] -0.001 | gefitinib -0.008 | [6] 0.004 | lapatinib -0.005 | pictilisib -0.052

CXorf56 (UniProt Q9H5V9)
inactive: saracatinib 0.051 | sotrastaurin -0.004 | alvocidib 0.029 | Tubastatin A 0.072 | [1] -0.01 | defactinib 0.011 | rucaparib 0.015 | [2] -0.179 | encorafenib 0.038 | [3] 0 | [4] 0.01 | filanesib 0.012 | zotarolimus -0.009 | idasanutlin 0.008 | alisertib 0.022 | [5] 0.063 | gefitinib 0.032 | [6] -0.038 | lapatinib 0.006 | pictilisib -0.045

CYB5R1 (UniProt Q9UHQ9)
inactive: saracatinib 0.032 | sotrastaurin 0.062 | alvocidib 0.032 | Tubastatin A -0.009 | [1] -0.051 | defactinib 0 | rucaparib 0.008 | [2] -0.05 | encorafenib -0.038 | [3] 0 | [4] -0.018 | filanesib -0.033 | zotarolimus -0.029 | idasanutlin -0.053 | alisertib -0.016 | [5] -0.003 | gefitinib 0.003 | [6] 0.065 | lapatinib -0.023 | pictilisib 0.12

CTCF (UniProt P49711)
inactive: saracatinib -0.089 | sotrastaurin -0.115 | alvocidib 0.232 | Tubastatin A -0.133 | [1] -0.03 | defactinib 0.243 | rucaparib 0.255 | [2] 0.012 | encorafenib 0.05 | [3] 0.011 | [4] -0.029 | filanesib 0.258 | zotarolimus -0.072 | idasanutlin 0.276 | alisertib -0.132 | [5] -0.088 | gefitinib -0.077 | [6] -0.127 | lapatinib 0.114 | pictilisib -0.013

CYSTM1 (UniProt Q9H1C7)
inactive: saracatinib 0.071 | sotrastaurin -0.031 | alvocidib 0.051 | Tubastatin A -0.033 | [1] -0.019 | defactinib -0.008 | rucaparib 0.116 | [2] -0.144 | encorafenib -0.038 | [3] 0.12 | [4] 0.047 | filanesib -0.005 | zotarolimus -0.15 | idasanutlin 0.231 | alisertib 0.05 | [5] -0.085 | gefitinib 0.115 | [6] 0 | lapatinib -0.066

DAD1 (UniProt P61803)
inactive: saracatinib 0.042 | sotrastaurin 0.025 | alvocidib 0.064 | Tubastatin A -0.075 | [1] -0.046 | defactinib -0.119 | rucaparib -0.031 | [2] -0.217 | encorafenib -0.085 | [3] 0.167 | [4] 0.057 | filanesib -0.042 | zotarolimus -0.147 | idasanutlin 0.088 | alisertib 0.026 | [5] 0.012 | gefitinib 0.061 | [6] -0.193 | lapatinib -0.058

CT45A10 (UniProt P0DMU9)
inactive: saracatinib -0.028 | sotrastaurin 0 | alvocidib 0.157 | Tubastatin A 0.051 | [1] -0.099 | defactinib 0.256 | rucaparib 0.147 | [2] 0.19 | encorafenib 0.075 | [3] 0.048 | [4] -0.112 | filanesib 0.227 | zotarolimus -0.091 | idasanutlin 0.2 | alisertib 0 | [5] -0.227 | gefitinib -0.038 | [6] 0.025 | lapatinib -0.313 | pictilisib -0.064

CST3 (UniProt P01034)
inactive: saracatinib 0.094 | sotrastaurin 0.008 | alvocidib -0.028 | Tubastatin A -0.006 | [1] 0.147 | defactinib -0.007 | rucaparib -0.005 | [2] 0.024 | encorafenib -0.063 | [3] 0.061 | [4] -0.003 | filanesib 0.103 | zotarolimus 0.01 | idasanutlin -0.015 | alisertib -0.021 | [5] 0.069 | gefitinib 0.094 | [6] 0.022 | lapatinib -0.006 | pictilisib 0.103
